Measurements reported in PubChem BioAssay AID1259405 (NCATS, 2018)
Purpose: 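Silenced genes that increase secreted GFP made by CHO cells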 (primary screen). Cell system: Chinese hamster CHO-K1 ovary cells with stable secreted eGFP expression. Knock-down reagent: single siRNA against mouse genes, 0.8 pmol siRNA per well (2 µl of 400 nM stock). Time to read-out: 3 days. Measurement: 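Percent of the per-plate non-targeting control median for intracellular GFP per well by laser scanning cytometry and for cell viability by ATP luminescence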. Reading the numbers: GFP, % of control: higher = more GFP per well, higher productivity; viability (ATP), % of control: higher = more viable cells (more ATP). Call rule: 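a knock-down is called active if GFP reaches 120% or more of non-targeting control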.
The whole screen tested about 50,000 reagents; below is a random part of them. Of all reagents, about 4,000 (8%) got an active call. 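Mouse siRNA library applied to hamster cells; one well for each siRNA.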 The numbers tell different reagents against one gene apart.

After knock-down of Slc22a15 #1, the screen gave GFP, % of control 96.8; viability (ATP), % of control 63.2; inactive. With knock-down of Slc22a15 #2, the record shows GFP, % of control 67; viability (ATP), % of control 70; inactive. With knock-down of Slc22a15 #3, the screen gave GFP, % of control 85; viability (ATP), % of control 98.8; inactive. After knock-down of Slc22a15 #4, the record shows GFP, % of control 97; viability (ATP), % of control 69.5; inactive. Slc22a15 #5 scored GFP, % of control 60.1; viability (ATP), % of control 59.8; inactive. Slc22a15 #6 gave GFP, % of control 81; viability (ATP), % of control 79.9; inactive.

With knock-down of Foxred2 (FAD-dependent oxidoreductase domain containing 2) #1 the results were GFP, % of control 366; viability (ATP), % of control 109; active. Against Foxred2 (FAD-dependent oxidoreductase domain containing 2) #2, the values are GFP, % of control 65.1; viability (ATP), % of control 48.8; inactive. Foxred2 (FAD-dependent oxidoreductase domain containing 2) #3 gave GFP, % of control 81.2; viability (ATP), % of control 81; inactive. Silencing of Eif2ak1 (eukaryotic translation initiation factor 2 alpha kinase 1) came out at: GFP, % of control 78.9; viability (ATP), % of control 73.8; inactive.

2 entries already listed, arranged by “GFP, % of control”, high to low.
Foxred2 (FAD-dependent oxidoreductase domain containing 2) #3 | GFP, % of control: 81.2; viability (ATP), % of control: 81; Outcome: inactive
Eif2ak1 (eukaryotic translation initiation factor 2 alpha kinase 1) | GFP, % of control: 78.9; viability (ATP), % of control: 73.8; Outcome: inactive

Next results follow.
Against Rtel1 (regulator of telomere elongation helicase 1) #1, the values are GFP, % of control 60.1; viability (ATP), % of control 38.8; inactive. With knock-down of Rtel1 (regulator of telomere elongation helicase 1) #2, the screen gave GFP, % of control 82; viability (ATP), % of control 62.2; inactive. With knock-down of Rtel1 (regulator of telomere elongation helicase 1) #3 the results were GFP, % of control 37.1; viability (ATP), % of control 55.3; inactive. Knock-down of Ifna5 (interferon alpha 5) #1 resulted in: GFP, % of control 35.7; viability (ATP), % of control 34.3; inactive. For Ifna5 (interferon alpha 5) #2 the deposit lists GFP, % of control 71; viability (ATP), % of control 70.5; inactive. After knock-down of Ifna5 (interferon alpha 5) #3, the screen gave GFP, % of control 84.1; viability (ATP), % of control 58.7; inactive.
